Experimental data taken from the supplement of paper PMC12819154, “High-throughput peptide-centric local stability assay extends protein–ligand identification to membrane proteins, tissues and bacteria” (Nature Structural & Molecular Biology, 2025).
The list shows a part of the results, in another mix than the full data. Small differences around the control level are noise.

Sequences of proteins named here, by UniProt entry; tags and fusion partners are left off. A change or cut given only in a name is not applied to a line headed by its entry.
UniProt P10903: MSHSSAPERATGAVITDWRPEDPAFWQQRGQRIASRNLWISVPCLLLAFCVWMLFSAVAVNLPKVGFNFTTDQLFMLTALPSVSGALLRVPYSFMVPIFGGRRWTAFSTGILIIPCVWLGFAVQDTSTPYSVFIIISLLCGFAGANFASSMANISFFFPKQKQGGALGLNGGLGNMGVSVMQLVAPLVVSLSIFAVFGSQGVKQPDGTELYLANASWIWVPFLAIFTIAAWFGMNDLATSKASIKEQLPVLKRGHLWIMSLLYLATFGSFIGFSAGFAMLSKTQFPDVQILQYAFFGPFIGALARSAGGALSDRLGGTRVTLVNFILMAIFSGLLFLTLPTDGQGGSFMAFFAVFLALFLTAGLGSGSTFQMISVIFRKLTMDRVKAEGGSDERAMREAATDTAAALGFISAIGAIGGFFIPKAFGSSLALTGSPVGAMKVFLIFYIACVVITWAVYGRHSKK
UniProt P10378: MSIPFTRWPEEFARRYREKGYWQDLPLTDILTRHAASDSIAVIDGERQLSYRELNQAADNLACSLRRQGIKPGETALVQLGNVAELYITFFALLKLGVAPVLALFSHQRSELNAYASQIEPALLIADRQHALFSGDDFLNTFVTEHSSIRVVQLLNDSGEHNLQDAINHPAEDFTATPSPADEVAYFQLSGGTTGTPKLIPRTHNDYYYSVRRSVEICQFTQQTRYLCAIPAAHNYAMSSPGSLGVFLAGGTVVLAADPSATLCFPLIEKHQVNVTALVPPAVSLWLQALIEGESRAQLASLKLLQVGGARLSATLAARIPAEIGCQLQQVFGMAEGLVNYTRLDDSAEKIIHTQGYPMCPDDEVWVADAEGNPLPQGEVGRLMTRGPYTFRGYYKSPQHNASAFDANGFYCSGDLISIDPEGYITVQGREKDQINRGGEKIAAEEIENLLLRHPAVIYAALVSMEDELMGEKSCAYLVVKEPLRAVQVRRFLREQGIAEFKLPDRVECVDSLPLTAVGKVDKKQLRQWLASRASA
UniProt P0AF98: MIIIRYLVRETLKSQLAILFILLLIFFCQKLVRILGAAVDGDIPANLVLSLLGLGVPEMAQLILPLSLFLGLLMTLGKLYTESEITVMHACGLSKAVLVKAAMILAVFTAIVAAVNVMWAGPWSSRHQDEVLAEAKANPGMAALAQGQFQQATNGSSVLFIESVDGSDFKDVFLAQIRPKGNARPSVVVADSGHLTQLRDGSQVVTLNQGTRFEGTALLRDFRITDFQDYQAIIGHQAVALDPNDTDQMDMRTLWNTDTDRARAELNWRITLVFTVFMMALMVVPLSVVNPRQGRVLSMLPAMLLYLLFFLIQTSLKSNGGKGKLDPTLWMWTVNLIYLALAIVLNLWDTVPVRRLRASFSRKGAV
UniProt P15032: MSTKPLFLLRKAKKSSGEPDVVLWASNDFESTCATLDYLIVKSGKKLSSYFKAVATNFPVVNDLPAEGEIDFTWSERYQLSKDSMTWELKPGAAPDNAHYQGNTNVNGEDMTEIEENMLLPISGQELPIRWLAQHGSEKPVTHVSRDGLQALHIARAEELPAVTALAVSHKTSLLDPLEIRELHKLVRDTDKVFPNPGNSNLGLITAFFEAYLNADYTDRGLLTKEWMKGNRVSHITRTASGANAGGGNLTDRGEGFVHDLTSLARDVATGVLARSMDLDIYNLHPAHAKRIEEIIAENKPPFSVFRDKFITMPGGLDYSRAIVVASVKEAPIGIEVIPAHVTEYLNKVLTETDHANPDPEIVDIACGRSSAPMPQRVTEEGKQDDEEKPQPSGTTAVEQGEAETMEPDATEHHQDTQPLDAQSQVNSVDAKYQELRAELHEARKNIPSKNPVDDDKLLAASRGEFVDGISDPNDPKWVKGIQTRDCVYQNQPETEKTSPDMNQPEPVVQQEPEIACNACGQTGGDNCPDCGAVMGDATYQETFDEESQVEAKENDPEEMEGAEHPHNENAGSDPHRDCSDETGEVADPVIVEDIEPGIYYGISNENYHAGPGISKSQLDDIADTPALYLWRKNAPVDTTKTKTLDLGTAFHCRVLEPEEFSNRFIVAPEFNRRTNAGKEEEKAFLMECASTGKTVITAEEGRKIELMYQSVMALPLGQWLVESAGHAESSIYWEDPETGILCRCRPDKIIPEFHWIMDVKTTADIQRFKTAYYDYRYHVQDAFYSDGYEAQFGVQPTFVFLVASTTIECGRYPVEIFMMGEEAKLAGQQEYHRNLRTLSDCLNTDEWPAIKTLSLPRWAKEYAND
UniProt P15288: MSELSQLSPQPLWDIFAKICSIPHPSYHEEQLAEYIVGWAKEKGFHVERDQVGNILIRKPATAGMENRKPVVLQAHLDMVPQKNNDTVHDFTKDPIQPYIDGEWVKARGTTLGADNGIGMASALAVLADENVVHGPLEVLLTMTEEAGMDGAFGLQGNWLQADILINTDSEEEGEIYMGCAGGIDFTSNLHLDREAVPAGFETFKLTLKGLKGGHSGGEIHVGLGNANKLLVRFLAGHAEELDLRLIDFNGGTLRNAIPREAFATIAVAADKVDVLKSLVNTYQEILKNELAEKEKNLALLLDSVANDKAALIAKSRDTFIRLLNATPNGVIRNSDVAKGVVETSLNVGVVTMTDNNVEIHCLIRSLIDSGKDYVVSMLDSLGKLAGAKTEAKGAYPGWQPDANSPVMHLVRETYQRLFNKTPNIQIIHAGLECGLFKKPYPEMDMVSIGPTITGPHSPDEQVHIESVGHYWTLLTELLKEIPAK
UniProt P0DN74: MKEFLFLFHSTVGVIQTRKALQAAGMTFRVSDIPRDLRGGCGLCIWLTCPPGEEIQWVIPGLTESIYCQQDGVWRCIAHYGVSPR
UniProt P13016: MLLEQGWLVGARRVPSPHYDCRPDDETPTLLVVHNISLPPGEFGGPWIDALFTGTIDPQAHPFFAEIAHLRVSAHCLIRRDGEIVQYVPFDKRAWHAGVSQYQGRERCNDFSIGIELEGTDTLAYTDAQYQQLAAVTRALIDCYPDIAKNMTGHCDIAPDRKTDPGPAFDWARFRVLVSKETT
UniProt P10151: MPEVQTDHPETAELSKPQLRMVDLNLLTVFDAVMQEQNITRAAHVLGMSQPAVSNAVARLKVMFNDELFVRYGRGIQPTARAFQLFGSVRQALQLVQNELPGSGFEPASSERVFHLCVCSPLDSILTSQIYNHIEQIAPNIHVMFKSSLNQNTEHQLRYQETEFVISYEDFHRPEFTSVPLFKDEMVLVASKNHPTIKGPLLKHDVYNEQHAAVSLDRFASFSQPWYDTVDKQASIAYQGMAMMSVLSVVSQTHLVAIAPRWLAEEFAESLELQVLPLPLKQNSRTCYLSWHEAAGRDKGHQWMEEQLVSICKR
UniProt P0AEX3: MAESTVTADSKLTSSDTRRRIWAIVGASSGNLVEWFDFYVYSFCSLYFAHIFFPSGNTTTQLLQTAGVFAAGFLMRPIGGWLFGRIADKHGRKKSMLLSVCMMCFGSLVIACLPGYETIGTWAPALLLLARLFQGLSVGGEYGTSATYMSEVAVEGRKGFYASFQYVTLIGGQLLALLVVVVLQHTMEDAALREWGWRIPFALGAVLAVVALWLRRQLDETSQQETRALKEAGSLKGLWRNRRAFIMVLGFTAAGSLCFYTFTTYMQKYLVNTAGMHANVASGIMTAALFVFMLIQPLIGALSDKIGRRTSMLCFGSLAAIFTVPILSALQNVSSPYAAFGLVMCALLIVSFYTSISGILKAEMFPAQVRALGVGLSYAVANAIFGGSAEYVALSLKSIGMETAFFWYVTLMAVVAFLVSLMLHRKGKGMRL
UniProt P13445, whole entry: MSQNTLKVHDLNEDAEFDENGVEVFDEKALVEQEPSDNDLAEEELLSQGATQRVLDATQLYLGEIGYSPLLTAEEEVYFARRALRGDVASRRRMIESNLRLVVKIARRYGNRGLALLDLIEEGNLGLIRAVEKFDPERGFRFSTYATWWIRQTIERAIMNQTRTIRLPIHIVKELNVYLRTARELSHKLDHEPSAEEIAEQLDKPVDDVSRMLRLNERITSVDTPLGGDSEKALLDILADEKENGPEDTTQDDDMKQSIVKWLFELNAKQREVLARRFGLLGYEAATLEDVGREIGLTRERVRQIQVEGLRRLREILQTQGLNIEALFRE
UniProt P0AFP2: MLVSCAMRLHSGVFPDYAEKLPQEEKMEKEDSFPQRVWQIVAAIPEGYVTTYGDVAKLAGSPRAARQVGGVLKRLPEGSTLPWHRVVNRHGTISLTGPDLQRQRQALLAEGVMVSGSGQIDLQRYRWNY
UniProt P16429: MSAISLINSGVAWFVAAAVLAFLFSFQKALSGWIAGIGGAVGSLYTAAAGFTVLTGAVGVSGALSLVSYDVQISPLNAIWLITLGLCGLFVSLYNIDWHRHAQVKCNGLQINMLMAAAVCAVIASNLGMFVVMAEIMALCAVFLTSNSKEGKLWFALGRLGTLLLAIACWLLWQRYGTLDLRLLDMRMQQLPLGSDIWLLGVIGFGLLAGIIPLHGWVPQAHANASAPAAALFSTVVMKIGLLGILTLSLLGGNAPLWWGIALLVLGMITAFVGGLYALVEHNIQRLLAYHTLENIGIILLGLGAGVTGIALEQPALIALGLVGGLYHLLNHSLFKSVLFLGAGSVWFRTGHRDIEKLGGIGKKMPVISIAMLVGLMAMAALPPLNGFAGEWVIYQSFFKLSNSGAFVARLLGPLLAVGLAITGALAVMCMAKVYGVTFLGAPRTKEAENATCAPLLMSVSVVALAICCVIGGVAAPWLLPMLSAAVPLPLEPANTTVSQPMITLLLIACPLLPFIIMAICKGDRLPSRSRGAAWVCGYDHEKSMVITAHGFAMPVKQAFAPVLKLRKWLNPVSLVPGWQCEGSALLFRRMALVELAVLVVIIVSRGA
UniProt P0C077: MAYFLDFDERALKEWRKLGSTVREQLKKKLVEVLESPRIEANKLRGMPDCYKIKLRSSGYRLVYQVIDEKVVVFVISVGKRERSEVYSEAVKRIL
UniProt P15877: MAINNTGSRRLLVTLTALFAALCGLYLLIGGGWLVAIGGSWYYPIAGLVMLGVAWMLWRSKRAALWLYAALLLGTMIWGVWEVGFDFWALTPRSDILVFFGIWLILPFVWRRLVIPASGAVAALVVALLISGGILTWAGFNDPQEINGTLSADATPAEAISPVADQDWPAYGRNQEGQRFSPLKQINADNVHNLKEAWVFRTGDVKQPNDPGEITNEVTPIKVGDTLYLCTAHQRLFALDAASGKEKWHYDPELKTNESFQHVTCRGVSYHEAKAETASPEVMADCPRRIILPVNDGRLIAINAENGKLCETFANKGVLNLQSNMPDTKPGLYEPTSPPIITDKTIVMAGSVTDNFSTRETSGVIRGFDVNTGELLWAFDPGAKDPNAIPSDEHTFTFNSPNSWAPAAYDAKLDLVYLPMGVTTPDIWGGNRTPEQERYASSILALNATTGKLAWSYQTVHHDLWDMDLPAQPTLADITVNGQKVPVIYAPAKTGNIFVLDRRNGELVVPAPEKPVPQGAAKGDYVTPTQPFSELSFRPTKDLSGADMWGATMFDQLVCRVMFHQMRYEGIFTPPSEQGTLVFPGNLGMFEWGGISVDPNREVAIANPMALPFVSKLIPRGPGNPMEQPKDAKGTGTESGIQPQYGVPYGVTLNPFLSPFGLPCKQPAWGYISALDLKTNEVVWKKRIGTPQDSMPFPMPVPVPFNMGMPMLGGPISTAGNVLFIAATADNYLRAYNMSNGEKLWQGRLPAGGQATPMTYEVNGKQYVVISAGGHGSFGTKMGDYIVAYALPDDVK
UniProt P0AFW8: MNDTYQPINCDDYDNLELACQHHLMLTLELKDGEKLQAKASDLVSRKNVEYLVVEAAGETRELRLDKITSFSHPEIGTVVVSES
UniProt P11349: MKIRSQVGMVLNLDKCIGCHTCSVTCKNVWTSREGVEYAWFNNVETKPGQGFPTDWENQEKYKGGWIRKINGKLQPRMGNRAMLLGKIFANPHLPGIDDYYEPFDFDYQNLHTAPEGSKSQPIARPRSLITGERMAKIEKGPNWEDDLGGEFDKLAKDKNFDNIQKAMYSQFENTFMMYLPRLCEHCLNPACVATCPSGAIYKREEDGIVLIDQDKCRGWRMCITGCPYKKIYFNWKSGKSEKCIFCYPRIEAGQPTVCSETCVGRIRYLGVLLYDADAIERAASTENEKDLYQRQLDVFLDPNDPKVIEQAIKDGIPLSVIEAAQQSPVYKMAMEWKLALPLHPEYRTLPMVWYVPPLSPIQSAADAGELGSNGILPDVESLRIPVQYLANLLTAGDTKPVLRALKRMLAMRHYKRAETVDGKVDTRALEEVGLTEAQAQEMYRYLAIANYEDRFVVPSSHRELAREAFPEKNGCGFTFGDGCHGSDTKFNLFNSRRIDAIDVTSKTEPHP
UniProt P0CG19: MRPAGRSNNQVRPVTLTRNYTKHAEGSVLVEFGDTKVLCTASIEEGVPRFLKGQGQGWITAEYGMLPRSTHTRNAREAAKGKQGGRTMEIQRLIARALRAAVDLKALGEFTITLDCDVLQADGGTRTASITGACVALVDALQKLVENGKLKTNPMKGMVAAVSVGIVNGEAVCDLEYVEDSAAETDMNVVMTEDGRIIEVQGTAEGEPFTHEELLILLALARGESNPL
UniProt P0CB62: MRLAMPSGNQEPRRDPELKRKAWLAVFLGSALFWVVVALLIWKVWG

compound: Nc1ncnc2c1ncn2[C@@H]1O[C@H](COP(=O)(O)OP(=O)(O)OP(=O)(O)O)[C@@H](O)[C@H]1O [adenosine 5'-triphosphate]; experiment: log2 fold change of tryptic peptide abundance, ligand vs vehicle (limited proteolysis) (log2 ratio); higher = more trypsin-susceptible (destabilized); conditions: ligand concentration: 5 mM; sample: E. coli desalted lysate; replicate design: treated before aliquoting
Protocol: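 HT-PELSA: desalted E. coli K-12 BW25113 lysate (with 12 mM MgCl2) incubated with 5 mM ATP (pH 7) or water for 30 min at 25 C, then a 4 min trypsin pulse at 22 C. Peptides were quantified by DIA-MS (4 replicates). Value is the peptide log2 fold change (treated/control); negative = stabilized. Scale: negative = ligand-stabilized region.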
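Also: lysate desalted by size exclusion to strip endogenous ATP, peptide intensities built from DIA-NN precursor signals, and peptides missing any value discarded before comparison.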

Row | Target | log2 fold change
1 | UniProt P10903 (peptide sequence: VKAEGGSDER, peptide start residue: 385) | -0.243
2 | UniProt P10378 (peptide sequence: SCAYLVVKEPLR, peptide start residue: 474) | -0.252
3 | UniProt P0AF98 (peptide sequence: TLWNTDTDR, peptide start residue: 253) | 0.691
4 | UniProt P15032 (peptide sequence: FIVAPEFNR, peptide start residue: 665) | -0.604
5 | UniProt P0AF43 (peptide sequence: MPKEELAEEESR, peptide start residue: 388) | -0.276
6 | UniProt P15288 (peptide sequence: LLNATPNGVIR, peptide start residue: 323) | 0.526
7 | UniProt P0DM85 (peptide sequence: LLNYAQQAR, peptide start residue: 426) | 0.735
8 | UniProt P13036 (peptide sequence: ENDVFEHAGAR, peptide start residue: 127) | -0.0734
9 | UniProt P11663 (peptide sequence: NAMLYDALK, peptide start residue: 125) | 0.276
10 | UniProt P0DN74 (peptide sequence: ALQAAGMTFR, peptide start residue: 20) | -0.00512
11 | UniProt P12758 (peptide sequence: IVVEAARR, peptide start residue: 244) | -1.03
12 | UniProt P0AFR0 (peptide sequence: LMDLSWQR, peptide start residue: 73) | -0.247
13 | UniProt P15033 (peptide sequence: TLDEGVKK, peptide start residue: 53) | 0.0291
14 | UniProt P12281 (peptide sequence: LSGNTASGLPAR, peptide start residue: 319) | 0.838
15 | UniProt P0AGH1 (peptide sequence: DVLAGRQPDIQVNVDATR, peptide start residue: 108) | -0.132
16 | UniProt P15006 (peptide sequence: GFHLNHGK, peptide start residue: 84) | -0.161
17 | UniProt P15028 (peptide sequence: EESIVKR, peptide start residue: 239) | 0.248
18 | UniProt P15070 (peptide sequence: ITDIITPSER, peptide start residue: 122) | -0.07
19 | UniProt P13016 (peptide sequence: TDPGPAFDWAR, peptide start residue: 163) | -0.279
20 | UniProt P10902 (peptide sequence: AVVLATGGASK, peptide start residue: 199) | 0.0539

An excerpt of these results, as comma-separated lines.
Row,Target,log2 fold change
14,"UniProt P12281 (peptide sequence: LSGNTASGLPAR, peptide start residue: 319)",0.838
15,"UniProt P0AGH1 (peptide sequence: DVLAGRQPDIQVNVDATR, peptide start residue: 108)",-0.132

Remaining list, next part:

Row | Target | log2 fold change
21 | UniProt P10151 (peptide sequence: AFQLFGSVR, peptide start residue: 82) | 0.645
22 | UniProt P0AEX3 (peptide sequence: ALKEAGSLK, peptide start residue: 228) | -0.331
23 | UniProt P13445 (peptide sequence: LDHEPSAEEIAEQLDKPVDDVSR, peptide start residue: 189) | -0.375
24 | UniProt P0CF40 (peptide sequence: KTMENELLK, peptide start residue: 90) | -0.682
25 | UniProt P13656 (peptide sequence: ANDATNPWR, peptide start residue: 63) | -0.185
26 | UniProt P0AFP2 (peptide sequence: EDSFPQR, peptide start residue: 30) | -0.27
27 | UniProt P16429 (peptide sequence: LGGIGKK, peptide start residue: 358) | 0.167
28 | UniProt P11289 (peptide sequence: GYAEGQKK, peptide start residue: 66) | 0.329
29 | UniProt P0C077 (peptide sequence: LVYQVIDEK, peptide start residue: 62) | 0.626
30 | UniProt P15877 (peptide sequence: GVSYHEAK, peptide start residue: 267) | -0.525
31 | UniProt P0AFW8 (peptide sequence: KNVEYLVVEAAGETR, peptide start residue: 47) | -0.362
32 | UniProt P11349 (peptide sequence: EEDGIVLIDQDKCR, peptide start residue: 205) | 0.357
33 | UniProt P13669 (peptide sequence: IREQIAR, peptide start residue: 14) | -0.556
34 | UniProt P10100 (peptide sequence: AEASTLQQR, peptide start residue: 339) | 0.123
35 | UniProt P0AFK9 (peptide sequence: LINFLLRPDVAK, peptide start residue: 274) | 0.585
36 | UniProt P0AFW0 (peptide sequence: SMLLLNLINKEIK, peptide start residue: 139) | 0.489
37 | UniProt P15078 (peptide sequence: HNDGLDYVPTDKK, peptide start residue: 74) | -0.231
38 | UniProt P0CG19 (peptide sequence: HAEGSVLVEFGDTK, peptide start residue: 23) | -0.391
39 | UniProt P0CB62 (peptide sequence: LAMPSGNQEPR, peptide start residue: 3) | 0.179
40 | UniProt P11072 (peptide sequence: NNDEHFDLTGK, peptide start residue: 91) | 0.19
